Measured values: the supplement of paper PMC4604168 (melanoma cell lines)
Some of the results follow. Many values rest on one well or one pass, so single values are uncertain.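 The apoptosis fraction was the count of cleaved-PARP antibody-stained nuclei relative to all DNA-stained nuclei, imaged in 1,536-well plates. Screening doses were set so most cells survived, and baseline and induced cleaved-PARP levels vary greatly across cell lines.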

The compounds below were run on WM451Lu (assay: cleaved PARP positive nuclei fraction relative to DMSO control; melanoma cells; higher = more apoptosis). Details: library dose: low library concentration; 72 h.

Structure (SMILES) | cleaved PARP positive nuclei fraction [%]
O=C(O)[C@@H]1[O][Sb](=[O])([O][Sb]2(=[O])[O][C@H]([C@H](O)CO)[C@H](O)[C@H](C(=O)O)[O]2)[O][C@H]([C@H](O)CO)[C@@H]1O (stereo not given in full) [stibogluconate] + OCCn1cc(-c2cnc3nnn(Cc4ccc5ncccc5c4)c3n2)cn1 [PF04217903] (first compound 2 µM, partner dose 1 µM) | 227
C[C@@H](Oc1cc(-c2cnn(C3CCNCC3)c2)cnc1N)c1c(Cl)ccc(F)c1Cl [Crizotinib] + Oc1cc(-c2nc(-c3ccccc3)[nH]c2-c2ccncc2)ccc1Cl [L779450] (first compound 0.2 µM, partner dose 0.2 µM) | 16.1
C[C@@H](Oc1cc(-c2cnn(C3CCNCC3)c2)cnc1N)c1c(Cl)ccc(F)c1Cl [Crizotinib] + CCCCCCCCCCCC1=C(O)C(=O)C=C(O)C1=O [Embelin] (first compound 0.2 µM, partner dose 1.2 µM) | 41.2
Nc1ncn([C@H]2C[C@H](O)[C@@H](CO)O2)c(=O)n1 [decitabine] + O=C(Nc1ccccc1)c1cc([N+](=O)[O-])ccc1Cl [GW9662] (first compound 0.1 µM, partner dose 2 µM) | 209
C[C@@H](Oc1cc(-c2cnn(C3CCNCC3)c2)cnc1N)c1c(Cl)ccc(F)c1Cl [Crizotinib] + O=c1cc(-c2cccc3c2Sc2ccccc2S3)oc(N2CCOCC2)c1 [KU55933] (first compound 0.2 µM, partner dose 1 µM) | 35.8
CS(=O)(=O)CCNCc1ccc(-c2ccc3ncnc(Nc4ccc(OCc5cccc(F)c5)c(Cl)c4)c3c2)o1 [lapatinib] + OCCn1cc(-c2cnc3nnn(Cc4ccc5ncccc5c4)c3n2)cn1 [PF04217903] (first compound 0.8 µM, partner dose 1 µM) | 104
Cc1cc(Nc2cc(N3CCN(C)CC3)nc(/C=C/c3ccccc3)n2)n[nH]1 + N#Cc1c(O)c2c(-c3ccc(-c4ccccc4O)cc3)csc2[nH]c1=O [A769662] (first compound 0.04 µM, partner dose 2 µM) | 142
CCCS(=O)(=O)Nc1ccc(F)c(C(=O)c2c[nH]c3ncc(Cl)cc23)c1F + COc1cc2ncnc(Nc3ccc(Oc4ccccc4)cc3)c2cc1OC [SrcI1] (first compound 0.08 µM, partner dose 2 µM) | 31.3
Nc1nc(F)nc2c1ncn2[C@@H]1O[C@H](CO)[C@@H](O)[C@@H]1O [fludarabine] + CO[C@@H]1[C@H](N(C)C(=O)c2ccccc2)C[C@H]2O[C@]1(C)n1c3ccccc3c3c4c(c5c6ccccc6n2c5c31)C(=O)NC4 [Midostaurin] (first compound 0.2 µM, partner dose 0.08 µM) | 129
Nc1ncn([C@H]2C[C@H](O)[C@@H](CO)O2)c(=O)n1 [decitabine] + O=C(O)c1ccc(-c2c[nH]c3ncc(-c4ccccc4)cc23)cc1C1CCCC1 [GSK650394] (first compound 0.1 µM, partner dose 0.16 µM) | 116
CN1CCN(c2ccc3nc(-c4c(N)c5c(F)cccc5[nH]c4=O)[nH]c3c2)CC1 [Dovitinib] + Oc1cc(-c2nc(-c3ccccc3)[nH]c2-c2ccncc2)ccc1Cl [L779450] (first compound 0.1 µM, partner dose 0.2 µM) | 92.4
CS(=O)(=O)CCNCc1ccc(-c2ccc3ncnc(Nc4ccc(OCc5cccc(F)c5)c(Cl)c4)c3c2)o1 [lapatinib] + O=S(=O)(c1ccccc1)N(CC(F)(F)F)c1ccc(C(O)(C(F)(F)F)C(F)(F)F)cc1 [T0901317] (first compound 0.8 µM, partner dose 1.4 µM) | 173
CNC(=O)c1cc(Oc2ccc(NC(=O)Nc3ccc(Cl)c(C(F)(F)F)c3)cc2)ccn1 [sorafenib] + O=C(O)c1ccc(-c2c[nH]c3ncc(-c4ccccc4)cc23)cc1C1CCCC1 [GSK650394] (first compound 0.4 µM, partner dose 0.16 µM) | 336
CC(C)C[C@H](NC(=O)[C@H](Cc1ccccc1)NC(=O)c1cnccn1)B(O)O [Bortezomib] + NC(=O)Nc1cc(-c2cccc(F)c2)sc1C(=O)N[C@H]1CCCNC1 [AZD7762] (first compound 0.001 µM, partner dose 0.02 µM) | 60.6
Nc1nc(F)nc2c1ncn2[C@@H]1O[C@H](CO)[C@@H](O)[C@@H]1O [fludarabine] + NCC(=O)Nc1ccc(-n2nc(C(F)(F)F)cc2-c2ccc3c(ccc4ccccc43)c2)cc1 [OSU03012] (first compound 0.2 µM, partner dose 1 µM) | 136
CC(C)C[C@H](NC(=O)[C@H](Cc1ccccc1)NC(=O)c1cnccn1)B(O)O [Bortezomib] + COc1cc2c(Oc3ccc4[nH]c(C)cc4c3F)ncnc2cc1OCCCN1CCCC1 [cediranib] (first compound 0.001 µM, partner dose 0.4 µM) | 48.5
CC(C)C[C@H](NC(=O)[C@H](Cc1ccccc1)NC(=O)c1cnccn1)B(O)O [Bortezomib] + C[C@@H]1CCN(C(=O)CC#N)C[C@@H]1N(C)c1ncnc2[nH]ccc12 [CP690550] (first compound 0.001 µM, partner dose 1 µM) | 66.9
Nc1ccn([C@@H]2O[C@H](CO)[C@@H](O)C2(F)F)c(=O)n1 [gemcitabine] + C=CCn1c(=O)c2cnc(Nc3ccc(N4CCN(C)CC4)cc3)nc2n1-c1cccc(C(C)(C)O)n1 [MK1775] (first compound 0.0004 µM, partner dose 0.02 µM) | 84.3
CNC(=O)c1cc(Oc2ccc(NC(=O)Nc3ccc(Cl)c(C(F)(F)F)c3)cc2)ccn1 [sorafenib] + COc1cc2c(Oc3ccc4[nH]c(C)cc4c3F)ncnc2cc1OCCCN1CCCC1 [cediranib] (first compound 0.4 µM, partner dose 0.4 µM) | 29.5
CNC(=O)c1cc(Oc2ccc(NC(=O)Nc3ccc(Cl)c(C(F)(F)F)c3)cc2)ccn1 [sorafenib] + Cc1ccc(NC(=O)c2cccc(N(C)C)c2)cc1NC(=O)c1ccc(O)cc1 [ZM336372] (first compound 0.4 µM, partner dose 2 µM) | 48.8
C[C@@H](Oc1cc(-c2cnn(C3CCNCC3)c2)cnc1N)c1c(Cl)ccc(F)c1Cl [Crizotinib] + CCN(CC)CCCCNc1ncc2cc(-c3cc(OC)cc(OC)c3)c(NC(=O)NC(C)(C)C)nc2n1 [PD173074] (first compound 0.2 µM, partner dose 0.1 µM) | 109
Nc1ncn([C@H]2C[C@H](O)[C@@H](CO)O2)c(=O)n1 [decitabine] + O=c1cc(-c2cccc3c2Sc2ccccc2S3)oc(N2CCOCC2)c1 [KU55933] (first compound 0.1 µM, partner dose 1 µM) | 232
O=C(O)c1ccc2c(c1)nc(Nc1cccc(Cl)c1)c1ccncc12 + O=C(O)c1ccc(-c2c[nH]c3ncc(-c4ccccc4)cc23)cc1C1CCCC1 [GSK650394] (first compound 0.4 µM, partner dose 0.16 µM) | 40.6
Cc1cc(Nc2cc(N3CCN(C)CC3)nc(/C=C/c3ccccc3)n2)n[nH]1 + C=CCn1c(=O)c2cnc(Nc3ccc(N4CCN(C)CC4)cc3)nc2n1-c1cccc(C(C)(C)O)n1 [MK1775] (first compound 0.04 µM, partner dose 0.02 µM) | 118
Nc1ccn([C@@H]2O[C@H](CO)[C@@H](O)C2(F)F)c(=O)n1 [gemcitabine] + O=C(Nc1cccc(Cl)c1)Nc1ncc(CCNc2ncnc3ccsc23)s1 [SNS314] (first compound 0.0004 µM, partner dose 0.0008 µM) | 58.9
C[C@@H](Oc1cc(-c2cnn(C3CCNCC3)c2)cnc1N)c1c(Cl)ccc(F)c1Cl [Crizotinib] + CO[C@@H]1[C@H](N(C)C(=O)c2ccccc2)C[C@H]2O[C@]1(C)n1c3ccccc3c3c4c(c5c6ccccc6n2c5c31)C(=O)NC4 [Midostaurin] (first compound 0.2 µM, partner dose 0.08 µM) | 49.7
CC(C)C[C@H](NC(=O)[C@H](Cc1ccccc1)NC(=O)c1cnccn1)B(O)O [Bortezomib] + COc1ccc2c(c1)CCC1C2CCC2(C)C(NCCCCCCN3C(=O)C=CC3=O)CCC12 [U73122] (first compound 0.001 µM, partner dose 0.4 µM) | 247
Nc1ccn([C@@H]2O[C@H](CO)[C@@H](O)C2(F)F)c(=O)n1 [gemcitabine] + OCCn1cc(-c2cnc3nnn(Cc4ccc5ncccc5c4)c3n2)cn1 [PF04217903] (first compound 0.0004 µM, partner dose 1 µM) | 142
CNC(=O)c1cc(Oc2ccc(NC(=O)Nc3ccc(Cl)c(C(F)(F)F)c3)cc2)ccn1 [sorafenib] + CO[C@@H]1[C@H](N(C)C(=O)c2ccccc2)C[C@H]2O[C@]1(C)n1c3ccccc3c3c4c(c5c6ccccc6n2c5c31)C(=O)NC4 [Midostaurin] (first compound 0.4 µM, partner dose 0.08 µM) | 293
O=C(O)[C@@H]1[O][Sb](=[O])([O][Sb]2(=[O])[O][C@H]([C@H](O)CO)[C@H](O)[C@H](C(=O)O)[O]2)[O][C@H]([C@H](O)CO)[C@@H]1O (stereo not given in full) [stibogluconate] + Cc1ccc(NC(=O)c2cccc(N(C)C)c2)cc1NC(=O)c1ccc(O)cc1 [ZM336372] (first compound 2 µM, partner dose 2 µM) | 24.3

Part of the list above, in markdown:

| Structure (SMILES) | cleaved PARP positive nuclei fraction [%] |
| --- | --- |
| CC(C)C[C@H](NC(=O)[C@H](Cc1ccccc1)NC(=O)c1cnccn1)B(O)O [Bortezomib] + C[C@@H]1CCN(C(=O)CC#N)C[C@@H]1N(C)c1ncnc2[nH]ccc12 [CP690550] (first compound 0.001 µM, partner dose 1 µM) | 66.9 |
| Nc1ccn([C@@H]2O[C@H](CO)[C@@H](O)C2(F)F)c(=O)n1 [gemcitabine] + C=CCn1c(=O)c2cnc(Nc3ccc(N4CCN(C)CC4)cc3)nc2n1-c1cccc(C(C)(C)O)n1 [MK1775] (first compound 0.0004 µM, partner dose 0.02 µM) | 84.3 |
| CNC(=O)c1cc(Oc2ccc(NC(=O)Nc3ccc(Cl)c(C(F)(F)F)c3)cc2)ccn1 [sorafenib] + COc1cc2c(Oc3ccc4[nH]c(C)cc4c3F)ncnc2cc1OCCCN1CCCC1 [cediranib] (first compound 0.4 µM, partner dose 0.4 µM) | 29.5 |
| CNC(=O)c1cc(Oc2ccc(NC(=O)Nc3ccc(Cl)c(C(F)(F)F)c3)cc2)ccn1 [sorafenib] + Cc1ccc(NC(=O)c2cccc(N(C)C)c2)cc1NC(=O)c1ccc(O)cc1 [ZM336372] (first compound 0.4 µM, partner dose 2 µM) | 48.8 |
| C[C@@H](Oc1cc(-c2cnn(C3CCNCC3)c2)cnc1N)c1c(Cl)ccc(F)c1Cl [Crizotinib] + CCN(CC)CCCCNc1ncc2cc(-c3cc(OC)cc(OC)c3)c(NC(=O)NC(C)(C)C)nc2n1 [PD173074] (first compound 0.2 µM, partner dose 0.1 µM) | 109 |
| Nc1ncn([C@H]2C[C@H](O)[C@@H](CO)O2)c(=O)n1 [decitabine] + O=c1cc(-c2cccc3c2Sc2ccccc2S3)oc(N2CCOCC2)c1 [KU55933] (first compound 0.1 µM, partner dose 1 µM) | 232 |
| O=C(O)c1ccc2c(c1)nc(Nc1cccc(Cl)c1)c1ccncc12 + O=C(O)c1ccc(-c2c[nH]c3ncc(-c4ccccc4)cc23)cc1C1CCCC1 [GSK650394] (first compound 0.4 µM, partner dose 0.16 µM) | 40.6 |
| Cc1cc(Nc2cc(N3CCN(C)CC3)nc(/C=C/c3ccccc3)n2)n[nH]1 + C=CCn1c(=O)c2cnc(Nc3ccc(N4CCN(C)CC4)cc3)nc2n1-c1cccc(C(C)(C)O)n1 [MK1775] (first compound 0.04 µM, partner dose 0.02 µM) | 118 |
| Nc1ccn([C@@H]2O[C@H](CO)[C@@H](O)C2(F)F)c(=O)n1 [gemcitabine] + O=C(Nc1cccc(Cl)c1)Nc1ncc(CCNc2ncnc3ccsc23)s1 [SNS314] (first compound 0.0004 µM, partner dose 0.0008 µM) | 58.9 |
